Assay results: paper PMC10732536
Results are given in words; binding and its absence hold for the method and conditions named. For part of these data: A result given as binding can be weak or reduced; the word gives no strength.

Legend:
[1] = target: T1, Grass (active, cleaved by cSP48) (Drosophila melanogaster) (UniProt Q9VB68); assay: LC-MS/MS of the SDS-stable Nec-protease bands; reactions (fig. S16) separated by 10% SDS-PAGE, in-gel chymotrypsin digestion of the Nec-protease bands, LC-MS/MS; both purified
T1 sequence: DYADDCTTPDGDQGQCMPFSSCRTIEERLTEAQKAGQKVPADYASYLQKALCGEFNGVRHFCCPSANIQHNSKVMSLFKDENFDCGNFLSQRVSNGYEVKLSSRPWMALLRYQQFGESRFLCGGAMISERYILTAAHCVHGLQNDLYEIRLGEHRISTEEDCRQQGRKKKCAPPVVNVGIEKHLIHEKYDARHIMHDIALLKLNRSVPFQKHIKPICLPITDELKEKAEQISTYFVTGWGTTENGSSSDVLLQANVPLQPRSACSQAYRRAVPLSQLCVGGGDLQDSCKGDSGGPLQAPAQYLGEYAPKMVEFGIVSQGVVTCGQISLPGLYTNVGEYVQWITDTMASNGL

[2] = target: T2, Psh (Drosophila melanogaster) (UniProt Q9VWU1); assay: SDS-stable serpin-protease complex (SDS-PAGE and immunoblot); Nec with cSP48 (blot with FLAG antibody, fig. S15A) or Psh (blot with anti-Myc antibody, fig. S15B); both purified
T2 sequence: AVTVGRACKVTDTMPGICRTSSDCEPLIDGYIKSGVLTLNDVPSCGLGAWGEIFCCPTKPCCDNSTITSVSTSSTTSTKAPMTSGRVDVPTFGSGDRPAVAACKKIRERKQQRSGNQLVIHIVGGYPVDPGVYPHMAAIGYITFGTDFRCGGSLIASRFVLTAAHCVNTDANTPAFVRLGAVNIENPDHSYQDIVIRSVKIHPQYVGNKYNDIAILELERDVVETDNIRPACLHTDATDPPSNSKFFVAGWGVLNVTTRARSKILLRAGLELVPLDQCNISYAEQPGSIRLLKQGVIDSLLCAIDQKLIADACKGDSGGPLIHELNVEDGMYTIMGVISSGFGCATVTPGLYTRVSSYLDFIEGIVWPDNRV

[3] = target: T1, Grass (active, cleaved by cSP48) (Drosophila melanogaster); assay: SDS-stable serpin-protease complex (SDS-PAGE and immunoblot); active Grass made in a mixture of proModSP* (500 ng), procSP48 (100 ng), proGrass (800 ng) in buffer A, 1 hour at 37°C; then Nec (800 ng) added, 1 hour at 37°C; 10% SDS-PAGE under reducing conditions; blots with HA or Nec antibodies; both purified

binding [1]: binds
binding [2]: no binding
binding [3]: binds
Substance: Necrotic (Drosophila melanogaster)
